Measured values as given in patent US20160297873A1 (VIRGINIA COMMONWEALTH UNIVERSITY, published 2016).
No constants are given. Whether binding was seen depends on the method and setting. Some binding calls cover weakened binding; strength is not graded here.

Columns and labels:
[1] = target: T1, DENND1A.V2 free peptide (V2-peptide, …) (human); assay: ELISA, antigens coated at 1 ug/ml, hybridoma supernatant
T1 sequence (peptide): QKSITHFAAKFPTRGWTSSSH

[2] = target: T2, V2-BSA-peptide (BSA-conjugated DENND1A.V2 peptide …) (human); assay: as above
T2 sequence (peptide, conjugated to BSA (site not stated)): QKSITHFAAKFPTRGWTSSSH

[3] = target: T3, V2-KLH-peptide (KLH-coupled DENND1A.V2 peptide …) (human); assay: as above
T3 sequence (peptide, coupled to KLH (site not stated)): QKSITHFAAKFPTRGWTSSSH

[4] = target: T1, DENND1A.V2 free peptide (V2-peptide, …) (human); assay: ELISA, hybridoma supernatant 1:10
[5] = target: T2, V2-BSA-peptide (BSA-conjugated DENND1A.V2 peptide …) (human); assay: ELISA, hybridoma supernatant 1:10
[6] = target: T3, V2-KLH-peptide (KLH-coupled DENND1A.V2 peptide …) (human); assay: ELISA, hybridoma supernatant 1:10
[7] = target: T1, DENND1A.V2 free peptide (V2-peptide, …) (human); assay: ELISA scan of hybridoma supernatants
[8] = target: T2, V2-BSA-peptide (BSA-conjugated DENND1A.V2 peptide …) (human); assay: ELISA scan of hybridoma supernatants
[9] = target: T3, V2-KLH-peptide (KLH-coupled DENND1A.V2 peptide …) (human); assay: ELISA scan of hybridoma supernatants

Measured: binding

B1: mouse monoclonal DENND1A.V2 specific IgG1 P1B2 (antibody, V domains shown)
VH: QQSGADLVRSGASVKLSCTASGFSNIKDFYMHWVKQRPEQGLEWIGWIDPENGDTDYAPKFQGRATMTADTSSNTAYLQLNSLTSEDTAVYYCNAHTFLHGNSEPMDYWGQGTSVTVS
VL: IVMTQSPKFMSTSVGDRVSITCKASQDVIAAVAWYQQKPGQSPELLIYSASYRYTGVPDRFTGSGSGTDFTFTISSVQAEDLAVYYCQQHYSTPWTFGGGTKLDIKR
binds: all assays above
